Experimental data: PubChem BioAssay AID1508597 (Cure First, 2020)
The whole screen tested about 2,100 reagents; this is an unselected part. 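Calls flag viability under 80% in either arm, not effects specific to rucaparib; the reference for percent is not stated.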 A reagent listed more than once was tested more than once; the source does not tell the runs apart. Not given: the 100% reference.

Test: 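Genes whose silencing sensitises or protects ovarian cancer cells against rucaparib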 (primary screen)
Cell system: human ovarian carcinoma lines grown from tumours: OCI-P5x (papillary serous) and OCI-C5x (clear cell)
Reagent: siRNA pool against human genes, 1.25 pmol siRNA per well
Timing: 72 h or 96 h, depending on the cell culture
Treatment: rucaparib 20 µM (about IC30) or vehicle, present until read-out
Measurement: 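ATP luminescence measured at 72 or 96 h according to the culture, then normalised and expressed as percent viability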
Reading the numbers: viability, normalised: higher = more viable cells remaining
Rule for the call: 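Active when normalised viability falls below 80 percent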
Calls: active = viability under 80%; inactive = viability 80% or more

target gene,rucaparib or vehicle,cell line,technical replicate,"viability, normalised (%)",Call
FLT3 (GeneID 2322),Rucaparib,OCI-C5x (clear cell),1,71.8,active
FLT3 (GeneID 2322),Rucaparib,OCI-C5x (clear cell),2,49,active
FLT3 (GeneID 2322),Rucaparib,OCI-C5x (clear cell),3,59.5,active
FLT3 (GeneID 2322),Rucaparib,OCI-P5x (serous),1,76.3,active
FLT3 (GeneID 2322),Rucaparib,OCI-P5x (serous),2,87.4,inactive
FLT3 (GeneID 2322),Rucaparib,OCI-P5x (serous),3,61.3,active
FLT3 (GeneID 2322),Vehicle,OCI-C5x (clear cell),1,59.1,active
FLT3 (GeneID 2322),Vehicle,OCI-C5x (clear cell),2,49,active
FLT3 (GeneID 2322),Vehicle,OCI-C5x (clear cell),3,48.5,active
FLT3 (GeneID 2322),Vehicle,OCI-P5x (serous),1,76,active
FLT3 (GeneID 2322),Vehicle,OCI-P5x (serous),2,49,active
FLT3 (GeneID 2322),Vehicle,OCI-P5x (serous),3,61.5,active
ROR1 (GeneID 4919),Rucaparib,OCI-C5x (clear cell),1,48.3,active
ROR1 (GeneID 4919),Rucaparib,OCI-C5x (clear cell),2,63.4,active
ROR1 (GeneID 4919),Rucaparib,OCI-C5x (clear cell),3,54.8,active
ROR1 (GeneID 4919),Rucaparib,OCI-P5x (serous),1,76,active
ROR1 (GeneID 4919),Rucaparib,OCI-P5x (serous),2,90.9,inactive
ROR1 (GeneID 4919),Rucaparib,OCI-P5x (serous),3,79.9,active
ROR1 (GeneID 4919),Vehicle,OCI-C5x (clear cell),1,62.5,active
ROR1 (GeneID 4919),Vehicle,OCI-C5x (clear cell),2,52.6,active
ROR1 (GeneID 4919),Vehicle,OCI-C5x (clear cell),3,54.2,active
ROR1 (GeneID 4919),Vehicle,OCI-P5x (serous),1,62.8,active
ROR1 (GeneID 4919),Vehicle,OCI-P5x (serous),2,61.6,active
ROR1 (GeneID 4919),Vehicle,OCI-P5x (serous),3,66,active
DCLK1 (GeneID 9201),Rucaparib,OCI-C5x (clear cell),1,57.9,active
DCLK1 (GeneID 9201),Rucaparib,OCI-C5x (clear cell),2,68.3,active
DCLK1 (GeneID 9201),Rucaparib,OCI-C5x (clear cell),3,65.9,active
DCLK1 (GeneID 9201),Rucaparib,OCI-P5x (serous),1,89.5,inactive
DCLK1 (GeneID 9201),Rucaparib,OCI-P5x (serous),2,105,inactive
DCLK1 (GeneID 9201),Rucaparib,OCI-P5x (serous),3,111,inactive
DCLK1 (GeneID 9201),Vehicle,OCI-C5x (clear cell),1,56.7,active
DCLK1 (GeneID 9201),Vehicle,OCI-C5x (clear cell),2,78.7,active
DCLK1 (GeneID 9201),Vehicle,OCI-C5x (clear cell),3,57.5,active
DCLK1 (GeneID 9201),Vehicle,OCI-P5x (serous),1,85.8,inactive
DCLK1 (GeneID 9201),Vehicle,OCI-P5x (serous),2,75.3,active
DCLK1 (GeneID 9201),Vehicle,OCI-P5x (serous),3,87.8,inactive
POLQ (GeneID 10721),Rucaparib,OCI-C5x (clear cell),1,58.9,active
POLQ (GeneID 10721),Rucaparib,OCI-C5x (clear cell),1,58.5,active
POLQ (GeneID 10721),Rucaparib,OCI-C5x (clear cell),2,53.9,active
POLQ (GeneID 10721),Rucaparib,OCI-C5x (clear cell),2,62.2,active
POLQ (GeneID 10721),Rucaparib,OCI-C5x (clear cell),3,50.8,active
POLQ (GeneID 10721),Rucaparib,OCI-C5x (clear cell),3,41.3,active
POLQ (GeneID 10721),Rucaparib,OCI-P5x (serous),1,61.4,active
POLQ (GeneID 10721),Rucaparib,OCI-P5x (serous),1,54,active
POLQ (GeneID 10721),Rucaparib,OCI-P5x (serous),2,44,active
POLQ (GeneID 10721),Rucaparib,OCI-P5x (serous),2,86.7,inactive
POLQ (GeneID 10721),Rucaparib,OCI-P5x (serous),3,67.5,active
POLQ (GeneID 10721),Rucaparib,OCI-P5x (serous),3,47.8,active
POLQ (GeneID 10721),Vehicle,OCI-C5x (clear cell),1,48.5,active
POLQ (GeneID 10721),Vehicle,OCI-C5x (clear cell),1,59.9,active
POLQ (GeneID 10721),Vehicle,OCI-C5x (clear cell),2,64.2,active
POLQ (GeneID 10721),Vehicle,OCI-C5x (clear cell),2,40.1,active
POLQ (GeneID 10721),Vehicle,OCI-C5x (clear cell),3,56.9,active
POLQ (GeneID 10721),Vehicle,OCI-C5x (clear cell),3,37.8,active
POLQ (GeneID 10721),Vehicle,OCI-P5x (serous),1,61.9,active
POLQ (GeneID 10721),Vehicle,OCI-P5x (serous),1,52.4,active
POLQ (GeneID 10721),Vehicle,OCI-P5x (serous),2,67.5,active
POLQ (GeneID 10721),Vehicle,OCI-P5x (serous),2,50.9,active
POLQ (GeneID 10721),Vehicle,OCI-P5x (serous),3,76.9,active
POLQ (GeneID 10721),Vehicle,OCI-P5x (serous),3,65.1,active
